PubChem BioAssay AID1053208, Peter MacCallum Cancer Centre | 2014
In all, the deposit lists about 17,000 reagents; below is an unselected part. 788 of all reagents (4.7%) count as active. 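Calls rest on z-score classes alone; an extra cut-off of viability at most 70% of control was not applied to them.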 Further read-outs or replicates are left out here.

- Purpose: 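Genes whose silencing cuts survival of bone tumour cells only with doxorubicin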 (primary screen)
- Cell system: mouse osteosarcoma cells, early-passage culture from an engineered mouse model of fibroblastic bone tumour
- Reagent: siRNA pool against mouse genes, 40 nM
- Timing: about 120 h (48 h before drug, then 72 h with drug)
- Conditions: doxorubicin 100 nM for 72 h, roughly 30-40% inhibitory dose
- Read-out: 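Luminescent ATP signal taken as viability with or without 100 nM doxorubicin for 72 h; mean of two wells set against non-targeting siRNA and turned into robust z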
- Scale: viability z-score with doxorubicin: higher = more viable cells under doxorubicin; viability z-score without drug: higher = more viable cells with knock-down alone
- Active means: 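Called active if knock-down leaves viability unchanged without drug (z within -2 to 2) but lowers it with doxorubicin (z at or under -2)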

gene knocked down	PubChem SID	combined z-score class	viability z-score with doxorubicin	viability z-score without drug	activity call
4632404H12Rik (RIKEN cDNA 4632404H12 gene)	SID152318154	no change with or without drug	-0.11	-0.84	inactive
Pigw (phosphatidylinositol glycan anchor biosynthesis, class W)	SID152279783	high cell count without drug only	1.8	2.19	inactive
Dsc2 (desmocollin 2)	SID152331683	no change with or without drug	0.56	0.51	inactive
Spdye4b (speedy/RINGO cell cycle regulator family, member E4B)	SID152284649	no change with or without drug	1.8	1.85	inactive
Cald1 (caldesmon 1)	SID152289947	no change with or without drug	0.22	0.34	inactive
Minar1 (membrane integral NOTCH2 associated receptor 1)	SID152304250	no change with or without drug	-0.79	-0.51	inactive
Ccdc42 (coiled-coil domain containing 42)	SID152335089	no change with or without drug	0.11	0.17	inactive
Haus4 (HAUS augmin-like complex, subunit 4)	SID152295012	no change with or without drug	0.67	0.84	inactive
Dlat (dihydrolipoamide S-acetyltransferase)	SID152300042	no change with or without drug	-0.22	1.01	inactive
Hcrt (hypocretin)	SID152308748	no change with or without drug	-0.34	-0.84	inactive
Pnn (pinin)	SID152266901	no change with or without drug	-0.56	0.34	inactive
Tab2 (TGF-beta activated kinase 1/MAP3K7 binding protein 2)	SID152261646	no change with or without drug	-0.45	-1.52	inactive
Hus1 (HUS1 checkpoint clamp component)	SID152299012	no change with or without drug	-0.45	-0.17	inactive
Mmrn1 (multimerin 1)	SID152284917	no change with or without drug	1.12	1.69	inactive
Zfp2 (zinc finger protein 2)	SID152327091	no change with or without drug	1.57	1.52	inactive
Adamts20 (ADAM metallopeptidase with thrombospondin type 1 motif 20)	SID152321522	no change with or without drug	0.22	0.84	inactive
Spata32 (spermatogenesis associated 32)	SID152289281	no change with or without drug	0.45	-1.35	inactive
Lysmd3 (LysM, putative peptidoglycan-binding, domain containing 3)	SID152320010	no change with or without drug	1.35	0.51	inactive
Catsper2 (cation channel, sperm associated 2)	SID152303455	high cell count without drug only	0.56	2.36	inactive
Prkcb (protein kinase C, beta)	SID152338648	high cell count with doxorubicin only	2.81	1.35	inactive
Egfl8 (EGF-like domain 8)	SID152304651	no change with or without drug	-0.67	0.17	inactive
4930503L19Rik (RIKEN cDNA 4930503L19 gene)	SID152287827	no change with or without drug	-0.67	1.18	inactive
5730455P16Rik (RIKEN cDNA 5730455P16 gene)	SID152342644	no change with or without drug	-0.34	0.17	inactive
Negr1 (neuronal growth regulator 1)	SID152320599	low cell count without drug only	-0.79	-2.19	inactive
Or2b2b (olfactory receptor family 2 subfamily B member 2B)	SID152302921	no change with or without drug	-1.8	-1.18	inactive
Bmal2 (basic helix-loop-helix ARNT like 2)	SID152338634	no change with or without drug	0.45	0.67	inactive
Braf (B-Raf proto-oncogene, serine/threonine kinase)	SID152259833	no change with or without drug	0	0.51	inactive
Snf8 (SNF8, ESCRT-II complex subunit, homolog (S. cerevisiae))	SID152314900	no change with or without drug	-0.11	0.51	inactive
Mrpl20 (mitochondrial ribosomal protein L20)	SID152330393	no change with or without drug	1.12	0.51	inactive
Kif22 (kinesin family member 22)	SID152317899	low cell count with doxorubicin only	-2.02	-0.67	active
Spata9 (spermatogenesis associated 9)	SID152293966	no change with or without drug	1.46	1.52	inactive
Ehd3 (EH-domain containing 3)	SID152291938	no change with or without drug	-1.12	0.34	inactive
Pakap (paralemmin A kinase anchor protein)	SID152259335	no change with or without drug	-0.45	0.17	inactive
Pakap (paralemmin A kinase anchor protein)	SID152324027	no change with or without drug	-0.67	-0.17	inactive
Arsj (arylsulfatase J)	SID152266503	low cell count with and without drug	-2.47	-4.89	inactive
Otop1 (otopetrin 1)	SID152264230	no change with or without drug	-1.24	0	inactive
Psmd9 (proteasome (prosome, macropain) 26S subunit, non-ATPase, 9)	SID152320832	high cell count without drug only	1.35	2.7	inactive
Crct1 (cysteine-rich C-terminal 1)	SID152278334	no change with or without drug	0.22	0.84	inactive
Hnrnpk (heterogeneous nuclear ribonucleoprotein K)	SID152328766	no change with or without drug	-0.67	-1.85	inactive
Pes1 (pescadillo ribosomal biogenesis factor 1)	SID152330021	no change with or without drug	-0.45	-1.52	inactive
Mag (myelin-associated glycoprotein)	SID152318255	no change with or without drug	-1.12	-1.18	inactive
Or51ah3 (olfactory receptor family 51 subfamily AH member 3)	SID152305821	no change with or without drug	-0.9	-0.17	inactive
Shoc2 (Shoc2, leucine rich repeat scaffold protein)	SID152333995	no change with or without drug	0.45	1.52	inactive
Ldhd (lactate dehydrogenase D)	SID152264973	no change with or without drug	-0.22	0.17	inactive
Cd82 (CD82 antigen)	SID152279194	no change with or without drug	-0.45	-0.51	inactive
Bcl9 (B cell CLL/lymphoma 9)	SID152297689	no change with or without drug	0	-0.34	inactive
B4galt2	SID152334763	no change with or without drug	1.57	-0.51	inactive
Cpsf3 (cleavage and polyadenylation specificity factor 3)	SID152291122	no change with or without drug	0	-0.84	inactive
Ccdc66 (coiled-coil domain containing 66)	SID152300676	no change with or without drug	-0.67	0.67	inactive
Nr1h2 (nuclear receptor subfamily 1, group H, member 2)	SID152327020	no change with or without drug	0	-0.17	inactive

Sorted by “viability z-score with doxorubicin” (ascending): 3 of the entries above.
gene knocked down	PubChem SID	combined z-score class	viability z-score with doxorubicin	viability z-score without drug	activity call
Tab2 (TGF-beta activated kinase 1/MAP3K7 binding protein 2)	SID152261646	no change with or without drug	-0.45	-1.52	inactive
Hus1 (HUS1 checkpoint clamp component)	SID152299012	no change with or without drug	-0.45	-0.17	inactive
Mmrn1 (multimerin 1)	SID152284917	no change with or without drug	1.12	1.69	inactive
